± gives the standard deviation of the averaged measurements. The list shows a part of the results. Single values are uncertain, as repeats are few or missing.
Molecular target: T1, NSUN6 (UniProt Q8TEA1)
T1 sequence: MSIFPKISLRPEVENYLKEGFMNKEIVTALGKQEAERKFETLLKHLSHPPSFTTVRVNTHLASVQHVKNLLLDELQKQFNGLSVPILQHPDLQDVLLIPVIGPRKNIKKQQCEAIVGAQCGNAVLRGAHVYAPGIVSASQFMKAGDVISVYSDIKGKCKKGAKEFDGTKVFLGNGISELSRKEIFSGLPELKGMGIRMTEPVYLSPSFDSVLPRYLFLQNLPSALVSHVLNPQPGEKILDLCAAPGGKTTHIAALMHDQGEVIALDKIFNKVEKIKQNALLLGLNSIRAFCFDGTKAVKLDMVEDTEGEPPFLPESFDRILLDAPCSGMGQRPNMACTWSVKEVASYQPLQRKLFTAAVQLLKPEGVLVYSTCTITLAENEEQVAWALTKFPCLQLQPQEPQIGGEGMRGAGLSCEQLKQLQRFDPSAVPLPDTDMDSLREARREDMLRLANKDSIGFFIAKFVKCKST
Test: m5C methylation level at the target C (C/(C+U) bisulfite reads) (fraction); higher = more methylation by NSUN6; extreme values may be limits of the assay
Details: HEK293T (wild-type)
Protocol: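 High-throughput mutagenesis reporter. About 140 bp oligo-pool variants of four natural Type II m5C substrates (substrate #1 chr15:91425541; #2 RAB15 3'UTR chr14:65413377; #3 SULT2A1 5'UTR chr19:48389569; #4 NAAA CDS chr4:76857361) were cloned as 3'UTR elements of psiCHECK-2 luciferase and transfected into wild-type HEK293T cells. Total RNA was taken 48 h later and m5C level was measured by targeted bisulfite sequencing as C/(C+U) reads at the m5C site (one library).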

[1] = parent substrate: substrate #1 (main figure)

Row | Sequence | m5C methylation level at the target C [1] | m5C methylation level at the target C (parent substrate: substrate #2) | m5C methylation level at the target C (parent substrate: substrate #3) | m5C methylation level at the target C (parent substrate: substrate #4)
1 | CCGAAC | 0.00189 | 0.00803 | 0.00179 | 0.00136
2 | UCCUGU | 0 | 0 | 0 | 0.00132
3 | UCUCAC | 0.00141 | 0 | 0.00381 | 0.000419
4 | GCGGUA | 0 | 0 | 0.00244 | 0.0022
5 | UCUCGG | 0.00158 | 0.00133 | 0.0118 | 0.00106
6 | CCCGGU | 0.000515 | 0.00197 | 0.00629 | 0
7 | UCGCGC | 0.00165 | 0 | 0.000814 | 0.000768
8 | UCUGAC | 0.000945 | 0.00123 | 0 | 0.00141
9 | ACCAAU | 0 | 0.0155 | 0 | 0
10 | GCUACG | 0.0114 | 0.00159 | 0.0125 | 0.00119
11 | GCUCGG | 0 | 0.00173 | 0.00226 | 0.00266
12 | GCCCUG | 0 | 0.0125 | 0.00174 | 0.00308
13 | UCUAUU | 0.000891 | 0 | 0 | 0.00255
14 | GCUUAC | 0.00153 | 0 | 0 | 0
15 | UCGCGU | 0 | 0.00172 | 0.00135 | 0.000794
16 | UCAUUU | 0 | 0.000986 | 0 | 0.00374
17 | CCCAAC | 0.00441 | 0 | 0.00163 | 0.00996
18 | GCAUGA | 0.00638 | 0 | 0 | 0.00918
19 | ACGUCG | 0.00235 | 0.00126 | 0.00564 | 0.00141
20 | CCUGUU | 0.000808 | 0 | 0.00139 | 0.00128
21 | CCGUAU | 0.00478 | 0.00202 | 0 | 0.00583
22 | GCGUGC | 0.0513 | 0.00197 | 0.00238 | 0.000885
23 | ACCUCC | 0.00138 | 0.00666 | 0.0102 | 0.00498
24 | CCACGG | 0 | 0 | 0.000398 | 0

Row | Sequence | m5C methylation level at the target C [1] | m5C methylation level at the target C (parent substrate: substrate #2) | m5C methylation level at the target C (parent substrate: substrate #3) | m5C methylation level at the target C (parent substrate: substrate #4)
25 | UCUGGA | 0 | 0.000908 | 0.000519 | 0
26 | GCAUGU | 0.00211 | 0.00134 | 0.000621 | 0.00117
27 | GCUGUG | 0.00138 | 0 | 0.00337 | 0
28 | GCAUAG | 0.000677 | 0 | 0.0026 | 0.000962
29 | CCUAUA | 0.00152 | 0 | 0.000618 | 0.00397
30 | UCCGAC | 0 | 0.00149 | 0.00126 | 0
31 | CCCCGA | 0.000915 | 0 | 0.00062 | 0.00443
32 | ACUCAG | 0.000561 | 0 | 0.002 | 0.000661
33 | GCGUGG | 0.00577 | 0.00152 | 0.00508 | 0
34 | ACACAU | 0 | 0 | 0 | 0
35 | UCCAAA | 0 | 0 | 0 | 0
36 | UCCCAG | 0.00414 | 0.00186 | 0 | 0
37 | CCGUUC | 0 | 0.00394 | 0.00139 | 0.00242
38 | ACCCUC | 0.00058 | 0.00391 | 0.00358 | 0
39 | UCGUCA | 0 | 0 | 0.00129 | 0.00187
40 | ACGAGC | 0.00871 | 0.00102 | 0 | 0.00118
41 | GCUGAC | 0.00896 | 0.000692 | 0.00597 | 0.002
42 | ACAGAC | 0.00087 | 0 | 0.00623 | 0
43 | GCAGGA | 0.000495 | 0.00524 | 0.000671 | 0.00187
44 | UCCUCG | 0.0011 | 0.000821 | 0.00143 | 0
45 | GCUCUG | 0 | 0.00193 | 0.00473 | 0.00221
46 | UCGCCA | 0 | 0.00231 | 0.00656 | 0.00121
47 | CCCAGG | 0 | 0 | 0.0014 | 0.000719
48 | ACAAGG | 0 | 0.00422 | 0.000612 | 0

Record cards (already shown):
GCGUGG is listed as m5C methylation level at the target C [1]: 0.00577; m5C methylation level at the target C (parent substrate: substrate #2): 0.00152; m5C methylation level at the target C (parent substrate: substrate #3): 0.00508; m5C methylation level at the target C (parent substrate: substrate #4): 0
CCCAGG is listed as m5C methylation level at the target C [1]: 0; m5C methylation level at the target C (parent substrate: substrate #2): 0; m5C methylation level at the target C (parent substrate: substrate #3): 0.0014; m5C methylation level at the target C (parent substrate: substrate #4): 0.000719
ACUCAG is listed as m5C methylation level at the target C [1]: 0.000561; m5C methylation level at the target C (parent substrate: substrate #2): 0; m5C methylation level at the target C (parent substrate: substrate #3): 0.002; m5C methylation level at the target C (parent substrate: substrate #4): 0.000661
ACGAGC is listed as m5C methylation level at the target C [1]: 0.00871; m5C methylation level at the target C (parent substrate: substrate #2): 0.00102; m5C methylation level at the target C (parent substrate: substrate #3): 0; m5C methylation level at the target C (parent substrate: substrate #4): 0.00118

The list continues:

Row | Sequence | m5C methylation level at the target C [1] | m5C methylation level at the target C (parent substrate: substrate #2) | m5C methylation level at the target C (parent substrate: substrate #3) | m5C methylation level at the target C (parent substrate: substrate #4)
49 | UCACCC | 0 | 0.000783 | 0.00261 | 0
50 | CCAUAA | 0 | 0.000783 | 0.0015 | 0
51 | CCUCAG | 0.00116 | 0.00196 | 0.000638 | 0.000946
52 | GCAAGG | 0.00334 | 0 | 0 | 0.00168
53 | UCCCUA | 0 | 0.00327 | 0.00117 | 0.00182
54 | GCGUUG | 0.00217 | 0 | 0.00085 | 0
55 | GCUGAA | 0.00229 | 0.00351 | 0.000894 | 0.000614
56 | ACAUCC | 0 | 0 | 0.00496 | 0
57 | ACUGCA | 0.000775 | 0.00258 | 0.000516 | 0.00168
58 | UCGCAU | 0 | 0.00693 | 0.000823 | 0.00493
59 | GCGGGA | 0.00487 | 0.000969 | 0.00315 | 0.00106
60 | CCUAUG | 0 | 0.00102 | 0.00146 | 0
61 | GCGGAU | 0.000507 | 0.00443 | 0 | 0.00249
62 | UCGGAU | 0 | 0 | 0.000988 | 0.0196
63 | CCGAUA | 0.00404 | 0.00128 | 0.000618 | 0.000908
64 | CCGCCG | 0.0037 | 0.00143 | 0.00414 | 0
65 | GCCGAG | 0.00126 | 0.00161 | 0.000983 | 0.00309
66 | ACCGGG | 0 | 0.00602 | 0 | 0.0114
67 | ACAGUU | 0 | 0 | 0 | 0
68 | CCCCCC | 0 | 0 | 0.00152 | 0
69 | GCGAUG | 0.00189 | 0 | 0.000577 | 0.00119
70 | CCCGCG | 0.00146 | 0 | 0.00068 | 0.00165
71 | CCUAUU | 0.000855 | 0 | 0.000473 | 0.00253
72 | UCGCCC | 0.00164 | 0.000691 | 0 | 0.0018

Row | Sequence | m5C methylation level at the target C [1] | m5C methylation level at the target C (parent substrate: substrate #2) | m5C methylation level at the target C (parent substrate: substrate #3) | m5C methylation level at the target C (parent substrate: substrate #4)
73 | UCGGUA | 0.00233 | 0.00842 | 0 | 0.000903
74 | GCUACC | 0.00127 | 0.00409 | 0 | 0.0199
75 | ACGCCC | 0 | 0.00458 | 0.000457 | 0
76 | GCAGCG | 0.00212 | 0 | 0 | 0
77 | UCGAGC | 0 | 0.00095 | 0.00271 | 0
78 | GCACGU | 0.00158 | 0.00233 | 0.0118 | 0.00182
79 | CCUUGU | 0.00215 | 0 | 0.00135 | 0.000478
80 | ACUGUU | 0.00127 | 0 | 0 | 0
81 | UCAUAG | 0.000955 | 0.00256 | 0.000651 | 0.000906
82 | ACAGUC | 0 | 0.0101 | 0 | 0.00683
83 | CCAAUC | 0 | 0.00111 | 0.000638 | 0.000954
84 | GCCCGA | 0.00127 | 0.00838 | 0.00163 | 0.00625
85 | ACUCCA | 0.556 | 0.137 | 0.454 | 0.493 ± 0.021
86 | CCCGGA | 0.00264 | 0.00112 | 0 | 0.00101
87 | CCUGAG | 0 | 0.00298 | 0.000372 | 0
88 | GCCUAC | 0.00268 | 0 | 0 | 0
89 | UCACGC | 0 | 0 | 0.00122 | 0.00136
90 | CCAGUA | 0.00378 | 0 | 0.00303 | 0.000569
91 | UCUAUC | 0.000628 | 0 | 0.00219 | 0
92 | CCCUAA | 0.0172 | 0 | 0.00134 | 0.000805
93 | UCGUGA | 0.00124 | 0 | 0.00181 | 0.00058

— the supplement of paper PMC8288183
